Our source for the binding values is PMC10505911.

Protein sequences, listed by entry. Tags and fused reporters are not part of them. Lines headed by an entry give the natural chain unless they say otherwise; changes in a name come on top. Chains listed by the source or under a name are the forms on record and can include a tag or linker. Residues count along the entry.
UniProt Q9BY78: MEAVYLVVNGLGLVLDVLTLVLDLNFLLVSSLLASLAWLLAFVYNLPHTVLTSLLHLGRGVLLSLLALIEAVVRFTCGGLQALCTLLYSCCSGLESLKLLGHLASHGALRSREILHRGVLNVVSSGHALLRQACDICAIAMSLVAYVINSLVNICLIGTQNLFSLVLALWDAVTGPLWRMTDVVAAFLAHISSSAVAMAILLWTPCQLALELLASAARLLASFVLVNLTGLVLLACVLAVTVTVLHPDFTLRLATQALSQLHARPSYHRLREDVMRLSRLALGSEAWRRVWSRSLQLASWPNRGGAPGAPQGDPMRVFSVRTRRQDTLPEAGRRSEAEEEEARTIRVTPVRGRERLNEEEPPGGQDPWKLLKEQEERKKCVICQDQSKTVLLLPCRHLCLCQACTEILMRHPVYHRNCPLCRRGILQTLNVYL
GST-RNF26: residues 304-433 of Q9BY78
2HA-TurboID-I382R-∆C (Q9BY78, form named): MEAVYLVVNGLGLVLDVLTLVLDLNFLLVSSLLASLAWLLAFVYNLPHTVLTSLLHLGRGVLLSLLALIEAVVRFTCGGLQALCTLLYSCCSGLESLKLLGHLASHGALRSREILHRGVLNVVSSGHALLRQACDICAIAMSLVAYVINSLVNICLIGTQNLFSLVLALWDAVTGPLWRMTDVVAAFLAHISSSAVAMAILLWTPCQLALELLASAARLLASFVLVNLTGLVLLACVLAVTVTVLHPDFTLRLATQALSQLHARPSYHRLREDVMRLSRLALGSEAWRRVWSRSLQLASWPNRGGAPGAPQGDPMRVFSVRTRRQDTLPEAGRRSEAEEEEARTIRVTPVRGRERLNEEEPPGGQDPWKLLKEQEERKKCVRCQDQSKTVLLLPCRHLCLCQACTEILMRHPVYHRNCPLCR
UniProt P08670: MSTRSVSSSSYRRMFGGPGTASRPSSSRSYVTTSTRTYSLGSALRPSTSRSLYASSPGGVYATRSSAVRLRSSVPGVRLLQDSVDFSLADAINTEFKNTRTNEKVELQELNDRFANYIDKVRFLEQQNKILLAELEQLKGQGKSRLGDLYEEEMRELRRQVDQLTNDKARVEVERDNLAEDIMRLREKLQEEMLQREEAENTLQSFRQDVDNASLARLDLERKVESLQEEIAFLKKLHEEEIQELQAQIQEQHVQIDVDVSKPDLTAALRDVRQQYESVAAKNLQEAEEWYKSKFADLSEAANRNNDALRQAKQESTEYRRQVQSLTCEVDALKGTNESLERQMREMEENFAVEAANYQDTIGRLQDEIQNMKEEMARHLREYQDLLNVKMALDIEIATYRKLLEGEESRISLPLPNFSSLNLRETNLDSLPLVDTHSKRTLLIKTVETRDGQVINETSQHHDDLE

One assay concerns the target 2HA-TurboID-RNF26 (UniProt Q9BY78). The assay can be described thus: proximity labelling; 2HA-TurboID-RNF26 variants expressed in HeLa (quantified in U2OS and HeLa); 30 min biotin before lysis; neutravidin precipitates blotted for vimentin and HA.
For another assay, the target named is 2HA-TurboID-RNF26 I382R (UniProt Q9BY78). The description is as above.
The target of the next assay is 2HA-TurboID-I382R-∆C (UniProt Q9BY78). The assay is described as above.
The target of the next assay is GST-RNF26 (304–433) (UniProt Q9BY78). The assay is described as follows: affinity purification with mass spectrometry; recombinant GST-RNF26 (304–433) as bait, co-precipitates from MelJuSo cell lysate; bands cut from a silver-stained gel, LC-MS; only the target purified.

Results are given in words; binding and its absence hold for the method and conditions named. Binding seen in cells or lysates may run through a third protein. These calls come from enrichment with a bait or labelling near it, and not all partners need be listed. For some of these results: A no says only that the protein was not detected with the bait.

Take “vimentin (endogenous, HeLa and U2OS cells) (from UniProt P08670 1-466)”: the binding entry is listed as “binds weakly” with 2HA-TurboID-RNF26, “binds” with 2HA-TurboID-RNF26 I382R and “no binding” with 2HA-TurboID-I382R-∆C.

As to “vimentin (endogenous, MelJuSo lysate) (from UniProt P08670 1-466)”, in the assay with GST-RNF26 (304–433), the binding result is listed as “binds”.
